This continues a long series; more values of the same kind are listed elsewhere.
Legend:
Type in all cases: cell-based
[1] = target: Histone-lysine N-methyltransferase EZH2 (Mus musculus) (UniProt Q61188); assay: Inhibition of EZH2 in mouse B16-F1 migrating cells assessed as fold change in H3K27me3-dependent regulated Smad6-mRNA expression at 3 uM measured by ChIP-seq analysis relative to control cells
[2] = target: Histone-lysine N-methyltransferase EZH2 (Mus musculus) (UniProt Q61188); assay: Inhibition of EZH2 in mouse B16-F1 migrating cells assessed as fold change in H3K27me3-buffered regulated Ell2-mRNA expression at 3 uM measured by ChIP-seq analysis relative to control cells
[3] = target: Histone-lysine N-methyltransferase EZH2 (Mus musculus) (UniProt Q61188); assay: Inhibition of EZH2 in mouse B16-F1 migrating cells assessed as fold change in H3K27me3-buffered regulated Srgap1-mRNA expression at 3 uM measured by ChIP-seq analysis relative to control cells
[4] = target: Histone-lysine N-methyltransferase EZH2 (Mus musculus) (UniProt Q61188); assay: Inhibition of EZH2 in mouse B16-F1 migrating cells assessed as fold change in H3K27me3-buffered regulated Hist1h1c-mRNA expression at 3 uM measured by ChIP-seq analysis relative to control cells
[5] = target: Histone-lysine N-methyltransferase EZH2 (Mus musculus) (UniProt Q61188); assay: Inhibition of EZH2 in mouse B16-F1 migrating cells assessed as fold change in H3K27me3-buffered regulated Nceh1-mRNA expression at 3 uM measured by ChIP-seq analysis relative to control cells
[6] = target: Histone-lysine N-methyltransferase EZH2 (Mus musculus) (UniProt Q61188); assay: Inhibition of EZH2 in mouse B16-F1 migrating cells assessed as fold change in H3K27me3-buffered regulated Tfrc-mRNA expression at 3 uM measured by ChIP-seq analysis relative to control cells
[7] = target: Histone-lysine N-methyltransferase EZH2 (Mus musculus) (UniProt Q61188); assay: Inhibition of EZH2 in mouse B16-F1 migrating cells assessed as fold change in H3K27me3-buffered regulated Uvssa-mRNA expression at 3 uM measured by ChIP-seq analysis relative to control cells
[8] = target: Histone-lysine N-methyltransferase EZH2 (Mus musculus) (UniProt Q61188); assay: Inhibition of EZH2 in mouse B16-F1 migrating cells assessed as fold change in H3K27me3-buffered regulated Zfp326-mRNA expression at 3 uM measured by ChIP-seq analysis relative to control cells
[9] = target: Histone-lysine N-methyltransferase EZH2 (Mus musculus) (UniProt Q61188); assay: Inhibition of EZH2 in mouse B16-F1 migrating cells assessed as fold change in H3K27me3-buffered regulated Gcc2-mRNA expression at 3 uM measured by ChIP-seq analysis relative to control cells
[10] = target: Histone-lysine N-methyltransferase EZH2 (Mus musculus) (UniProt Q61188); assay: Inhibition of EZH2 in mouse B16-F1 migrating cells assessed as fold change in H3K27me3-buffered regulated Knl1-mRNA expression at 3 uM measured by ChIP-seq analysis relative to control cells
[11] = target: Histone-lysine N-methyltransferase EZH2 (Mus musculus) (UniProt Q61188); assay: Inhibition of EZH2 in mouse B16-F1 migrating cells assessed as fold change in H3K27me3-buffered regulated Skida1-mRNA expression at 3 uM measured by ChIP-seq analysis relative to control cells
[12] = target: Histone-lysine N-methyltransferase EZH2 (Mus musculus) (UniProt Q61188); assay: Inhibition of EZH2 in mouse B16-F1 migrating cells assessed as fold change in H3K27me3-buffered regulated Phip-mRNA expression at 3 uM measured by ChIP-seq analysis relative to control cells
[13] = target: T1, RNA polymerase II (Mus musculus) (UniProt P08775+Q8CFI7+P97760+A0A3Q4L2S8+Q80UW8+P61219+P62488+Q923G2+P60898+O08740+Q63871+P62876); assay: Inhibition of RNA polymerase II in mouse B16-F1 migrating cells assessed as fold change in Atp9a-RNA stability at 0.1 mM measured by ChIP-seq analysis relative to control cells
[14] = target: T1, RNA polymerase II (Mus musculus); assay: Inhibition of RNA polymerase II in mouse B16-F1 migrating cells assessed as fold change in Ppme1-RNA stability at 0.1 mM measured by ChIP-seq analysis relative to control cells
[15] = target: T1, RNA polymerase II (Mus musculus); assay: Inhibition of RNA polymerase II in mouse B16-F1 migrating cells assessed as fold change in Trmt112-RNA stability at 0.1 mM measured by ChIP-seq analysis relative to control cells
[16] = target: T1, RNA polymerase II (Mus musculus); assay: Inhibition of RNA polymerase II in mouse B16-F1 migrating cells assessed as fold change in Impa1-RNA stability at 0.1 mM measured by ChIP-seq analysis relative to control cells
[17] = target: T1, RNA polymerase II (Mus musculus); assay: Inhibition of RNA polymerase II in mouse B16-F1 migrating cells assessed as fold change in Lims1-RNA stability at 0.1 mM measured by ChIP-seq analysis relative to control cells
[18] = target: T1, RNA polymerase II (Mus musculus); assay: Inhibition of RNA polymerase II in mouse B16-F1 migrating cells assessed as fold change in Fbxo3-RNA stability at 0.1 mM measured by ChIP-seq analysis relative to control cells
[19] = target: T1, RNA polymerase II (Mus musculus); assay: Inhibition of RNA polymerase II in mouse B16-F1 migrating cells assessed as fold change in Zbtb2-RNA stability at 0.1 mM measured by ChIP-seq analysis relative to control cells
[20] = target: T1, RNA polymerase II (Mus musculus); assay: Inhibition of RNA polymerase II in mouse B16-F1 migrating cells assessed as fold change in Uba3-RNA stability at 0.1 mM measured by ChIP-seq analysis relative to control cells
[21] = target: T1, RNA polymerase II (Mus musculus); assay: Inhibition of RNA polymerase II in mouse B16-F1 migrating cells assessed as fold change in Snx10-RNA stability at 0.1 mM measured by ChIP-seq analysis relative to control cells
[22] = target: T1, RNA polymerase II (Mus musculus); assay: Inhibition of RNA polymerase II in mouse B16-F1 migrating cells assessed as fold change in E2f3-RNA stability at 0.1 mM measured by ChIP-seq analysis relative to control cells
[23] = target: T1, RNA polymerase II (Mus musculus); assay: Inhibition of RNA polymerase II in mouse B16-F1 migrating cells assessed as fold change in Ttc14-RNA stability at 0.1 mM measured by ChIP-seq analysis relative to control cells
[24] = target: T1, RNA polymerase II (Mus musculus); assay: Inhibition of RNA polymerase II in mouse B16-F1 migrating cells assessed as fold change in Ddit4-RNA stability at 0.1 mM measured by ChIP-seq analysis relative to control cells
[25] = target: T1, RNA polymerase II (Mus musculus); assay: Inhibition of RNA polymerase II in mouse B16-F1 migrating cells assessed as fold change in Otud4-RNA stability at 0.1 mM measured by ChIP-seq analysis relative to control cells
[26] = target: T1, RNA polymerase II (Mus musculus); assay: Inhibition of RNA polymerase II in mouse B16-F1 migrating cells assessed as fold change in Dkc1-RNA stability at 0.1 mM measured by ChIP-seq analysis relative to control cells
[27] = target: T1, RNA polymerase II (Mus musculus); assay: Inhibition of RNA polymerase II in mouse B16-F1 migrating cells assessed as fold change in Strn3-RNA stability at 0.1 mM measured by ChIP-seq analysis relative to control cells
[28] = target: T1, RNA polymerase II (Mus musculus); assay: Inhibition of RNA polymerase II in mouse B16-F1 migrating cells assessed as fold change in Cbx3-RNA stability at 0.1 mM measured by ChIP-seq analysis relative to control cells
[29] = target: T1, RNA polymerase II (Mus musculus); assay: Inhibition of RNA polymerase II in mouse B16-F1 migrating cells assessed as fold change in Tmtc3-RNA stability at 0.1 mM measured by ChIP-seq analysis relative to control cells
[30] = target: T1, RNA polymerase II (Mus musculus); assay: Inhibition of RNA polymerase II in mouse B16-F1 migrating cells assessed as fold change in Ccnc-RNA stability at 0.1 mM measured by ChIP-seq analysis relative to control cells

The chains behind the UniProt entries cited, without tags or fusion partners.
UniProt Q61188, whole entry: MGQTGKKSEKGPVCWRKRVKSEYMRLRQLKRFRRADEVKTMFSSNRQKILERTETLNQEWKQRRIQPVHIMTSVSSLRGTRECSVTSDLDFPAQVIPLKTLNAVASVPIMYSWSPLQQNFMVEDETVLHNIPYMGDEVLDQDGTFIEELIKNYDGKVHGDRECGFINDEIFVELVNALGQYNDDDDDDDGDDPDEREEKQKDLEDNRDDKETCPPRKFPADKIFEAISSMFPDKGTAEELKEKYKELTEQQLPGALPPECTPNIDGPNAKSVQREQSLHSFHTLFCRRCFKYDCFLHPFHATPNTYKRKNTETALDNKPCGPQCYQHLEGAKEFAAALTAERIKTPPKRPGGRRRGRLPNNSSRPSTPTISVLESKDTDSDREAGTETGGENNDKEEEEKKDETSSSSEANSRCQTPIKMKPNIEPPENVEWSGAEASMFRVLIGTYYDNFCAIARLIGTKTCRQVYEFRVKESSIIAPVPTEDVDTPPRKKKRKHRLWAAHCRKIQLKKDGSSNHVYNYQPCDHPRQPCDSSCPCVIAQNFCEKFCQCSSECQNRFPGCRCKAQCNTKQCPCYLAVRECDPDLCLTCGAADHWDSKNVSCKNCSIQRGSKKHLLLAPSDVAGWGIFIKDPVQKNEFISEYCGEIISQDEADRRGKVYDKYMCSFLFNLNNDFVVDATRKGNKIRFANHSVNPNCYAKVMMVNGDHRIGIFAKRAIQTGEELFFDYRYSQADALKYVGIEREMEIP

For `CCCc1cc(C)[nH]c(=O)c1CNC(=O)c1cc(-c2ccnc(N3CCN(C)CC3)c2)cc2c1cnn2C(C)C`, which log2FC [1] is on record?
Its log2FC is 0.36.

And the log2FC [2]?
Its log2FC is 0.49.

What about the log2FC [3] of the same compound?
The log2FC was 0.45.

And the log2FC [4]?
The log2FC was 0.43.

What about the log2FC [5] of the same compound?
Its log2FC is 0.39.

What about the log2FC [6] of the same compound?
Its log2FC is -0.38.

And the log2FC [7]?
The log2FC was -0.39.

And the log2FC [8]?
The log2FC was -0.42.

And the log2FC [9]?
The log2FC was -0.48.

What about the log2FC [10] of the same compound?
Its log2FC is -0.49.

And the log2FC [11]?
Its log2FC is -0.54.

And the log2FC [12]?
The log2FC was -0.64.

Which results are given for `OC[C@H]1O[C@@H](n2cnc3cc(Cl)c(Cl)cc32)[C@H](O)[C@@H]1O`?
log2FC [13]: 0.52; log2FC [14]: 0.51; log2FC [15]: 0.51; log2FC [16]: -0.39; log2FC [17]: -0.46; log2FC [18]: -0.46; log2FC [19]: -0.48; log2FC [20]: -0.48; log2FC [21]: -0.51; log2FC [22]: -0.52; log2FC [23]: -0.57; log2FC [24]: -0.61; log2FC [25]: -0.69; log2FC [26]: -0.71; log2FC [27]: -0.71; log2FC [28]: -0.8; log2FC [29]: -0.85; log2FC [30]: -0.91

Source: ChEMBL document CHEMBL5674883, “The Heterochromatin Landscape in Migrating Cells and the Importance of H3K27me3 for Associated Transcriptome Alterations” (Cells, 2018)
